Here are results for one molecule from article PMC10550821, “Cryo-EM structures reveal native GABAA receptor assemblies and pharmacology” (Nature, 2023).

These are yes or no findings as the source states them, for the method shown. Binding seen in cells or lysates may run through a third protein. Here binding means that the protein was enriched with, or labelled near, the bait; the list need not be complete.

For this experiment, the target named is T1, GABAA receptor α1 subunit, native, from mouse brain (mouse (endogenous in mouse brain)), P62812.
T1 chain: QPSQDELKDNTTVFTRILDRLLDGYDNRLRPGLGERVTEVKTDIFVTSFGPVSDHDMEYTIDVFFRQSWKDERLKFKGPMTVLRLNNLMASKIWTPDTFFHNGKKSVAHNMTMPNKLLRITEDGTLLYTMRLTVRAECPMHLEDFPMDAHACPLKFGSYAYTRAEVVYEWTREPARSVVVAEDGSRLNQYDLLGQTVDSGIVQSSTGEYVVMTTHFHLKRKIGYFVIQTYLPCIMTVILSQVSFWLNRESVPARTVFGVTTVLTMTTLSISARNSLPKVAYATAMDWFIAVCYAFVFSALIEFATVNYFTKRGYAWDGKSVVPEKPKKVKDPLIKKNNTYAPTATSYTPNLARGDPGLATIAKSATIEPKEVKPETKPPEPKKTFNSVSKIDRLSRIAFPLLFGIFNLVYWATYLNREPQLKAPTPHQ
Briefly: affinity purification with mass spectrometry; native receptors isolated through the α1 subunit with 8E3-GFP Fab, in nanodiscs, pentameric SEC peak, about 5 μg protein; two mass spectrometry methods. Particulars: remark: other sources report otherwise.

B1: GABAA receptor α4 subunit, native, from mouse brain, Q9D6F4 36-552 (receptor)
chain: QNSKDEKLCPENFTRILDSLLDGYDNRLRPGFGGPVTEVKTDIYVTSFGPVSDVEMEYTMDVFFRQTWIDKRLKYDGPIEILRLNNMMVTKVWTPDTFFRNGKKSVSHNMTAPNKLFRIMRNGTILYTMRLTISAECPMRLVDFPMDGHACPLKFGSYAYPKSEMIYTWTKGPEKSVEVPKESSSLVQYDLIGQTVSSETIKSITGEYIVMTVYFHLRRKMGYFMIQTYIPCIMTVILSQVSFWINKESVPARTVFGITTVLTMTTLSISARHSLPKVSYATAMDWFIAVCFAFVFSALIEFAAVNYFTNIQMQKAKKKISKPPPEVPAAPVLKEKHTETSLQNTHANLNMRKRTNALVHSESDVKSRTEVGNHSSKTSAVQESSEATPKAHLASSPNPFSRANAAETMSAAARGLSSAASPSPHGTLRPASLGSASTRPAFGSRLGRIKTTVNTTGAAGNVSATPPPPAPPPSGSGTSKIDKYARILFPVTFGAFNMVYWVVYLSKDTMEKSESLM
modifications: here or on the partner: N-glycosylation
Consider B1, for which the binding result was “binds”.
